Measurements from the supplement of paper PMC10032668.
Some of the results follow. Only hits are listed; about a third recur on repeated control peptides.

The chains behind the UniProt entries cited, without tags or fusion partners.
CAPZB, P47756, UniProt P47756, whole entry: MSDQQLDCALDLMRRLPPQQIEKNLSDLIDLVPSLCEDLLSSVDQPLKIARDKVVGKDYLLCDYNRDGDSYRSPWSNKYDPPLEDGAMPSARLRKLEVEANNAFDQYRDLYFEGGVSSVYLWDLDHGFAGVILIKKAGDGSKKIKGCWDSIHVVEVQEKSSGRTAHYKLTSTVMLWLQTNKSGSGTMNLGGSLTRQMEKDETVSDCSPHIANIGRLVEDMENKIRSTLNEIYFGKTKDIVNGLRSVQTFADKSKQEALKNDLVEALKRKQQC
CD2AP, Q9Y5K6, UniProt Q9Y5K6, whole entry: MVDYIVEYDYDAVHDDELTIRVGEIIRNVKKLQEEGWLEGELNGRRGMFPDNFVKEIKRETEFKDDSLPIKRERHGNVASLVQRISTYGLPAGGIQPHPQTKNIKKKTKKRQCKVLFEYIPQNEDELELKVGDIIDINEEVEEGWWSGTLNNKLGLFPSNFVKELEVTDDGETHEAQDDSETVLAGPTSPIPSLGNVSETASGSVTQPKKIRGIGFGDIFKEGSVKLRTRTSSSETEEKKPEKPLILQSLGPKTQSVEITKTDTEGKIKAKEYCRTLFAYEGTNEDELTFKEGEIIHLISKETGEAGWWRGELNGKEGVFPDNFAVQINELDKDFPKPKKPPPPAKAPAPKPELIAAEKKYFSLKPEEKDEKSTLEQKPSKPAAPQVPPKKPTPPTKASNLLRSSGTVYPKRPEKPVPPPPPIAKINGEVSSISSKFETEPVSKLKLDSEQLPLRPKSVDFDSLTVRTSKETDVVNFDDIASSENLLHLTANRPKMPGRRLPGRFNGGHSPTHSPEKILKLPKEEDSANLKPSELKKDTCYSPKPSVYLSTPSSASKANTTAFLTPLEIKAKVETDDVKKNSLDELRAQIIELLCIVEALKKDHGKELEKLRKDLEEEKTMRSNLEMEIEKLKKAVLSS
SET, Q01105, UniProt Q01105, whole entry: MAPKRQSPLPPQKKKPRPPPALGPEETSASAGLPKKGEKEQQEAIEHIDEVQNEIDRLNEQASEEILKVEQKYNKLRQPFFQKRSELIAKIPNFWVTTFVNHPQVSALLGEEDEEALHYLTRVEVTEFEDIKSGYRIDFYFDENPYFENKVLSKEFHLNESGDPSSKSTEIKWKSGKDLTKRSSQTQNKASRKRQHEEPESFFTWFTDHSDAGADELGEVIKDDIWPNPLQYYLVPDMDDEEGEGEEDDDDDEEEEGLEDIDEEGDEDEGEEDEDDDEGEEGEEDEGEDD
SH3KBP1, Q96B97, UniProt Q96B97, whole entry: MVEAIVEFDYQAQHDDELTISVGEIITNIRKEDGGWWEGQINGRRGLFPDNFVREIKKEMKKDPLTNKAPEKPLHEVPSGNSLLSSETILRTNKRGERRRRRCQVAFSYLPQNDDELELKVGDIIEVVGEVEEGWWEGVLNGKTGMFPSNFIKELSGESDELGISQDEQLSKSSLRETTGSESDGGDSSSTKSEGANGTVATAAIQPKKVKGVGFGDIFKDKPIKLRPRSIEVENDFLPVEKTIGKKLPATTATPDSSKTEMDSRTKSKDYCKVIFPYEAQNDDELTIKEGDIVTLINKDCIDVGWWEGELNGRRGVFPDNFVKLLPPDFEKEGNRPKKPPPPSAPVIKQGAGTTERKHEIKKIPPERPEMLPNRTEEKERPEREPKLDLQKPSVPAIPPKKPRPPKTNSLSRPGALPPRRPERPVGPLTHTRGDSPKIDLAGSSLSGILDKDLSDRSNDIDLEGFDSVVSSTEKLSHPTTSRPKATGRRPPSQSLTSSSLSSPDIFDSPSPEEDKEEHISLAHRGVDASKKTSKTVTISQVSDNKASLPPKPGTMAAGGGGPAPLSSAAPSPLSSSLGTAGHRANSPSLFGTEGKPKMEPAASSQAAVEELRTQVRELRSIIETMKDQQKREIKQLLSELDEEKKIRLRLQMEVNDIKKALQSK
SRSF1, Q07955, UniProt Q07955, whole entry: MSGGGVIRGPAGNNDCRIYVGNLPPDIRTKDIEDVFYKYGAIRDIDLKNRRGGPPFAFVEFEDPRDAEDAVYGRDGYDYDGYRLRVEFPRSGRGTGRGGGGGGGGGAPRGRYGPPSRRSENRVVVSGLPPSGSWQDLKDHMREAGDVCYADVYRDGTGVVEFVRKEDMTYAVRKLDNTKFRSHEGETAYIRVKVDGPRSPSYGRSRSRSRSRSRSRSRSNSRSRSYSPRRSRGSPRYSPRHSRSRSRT
COIL, P38432, UniProt P38432, whole entry: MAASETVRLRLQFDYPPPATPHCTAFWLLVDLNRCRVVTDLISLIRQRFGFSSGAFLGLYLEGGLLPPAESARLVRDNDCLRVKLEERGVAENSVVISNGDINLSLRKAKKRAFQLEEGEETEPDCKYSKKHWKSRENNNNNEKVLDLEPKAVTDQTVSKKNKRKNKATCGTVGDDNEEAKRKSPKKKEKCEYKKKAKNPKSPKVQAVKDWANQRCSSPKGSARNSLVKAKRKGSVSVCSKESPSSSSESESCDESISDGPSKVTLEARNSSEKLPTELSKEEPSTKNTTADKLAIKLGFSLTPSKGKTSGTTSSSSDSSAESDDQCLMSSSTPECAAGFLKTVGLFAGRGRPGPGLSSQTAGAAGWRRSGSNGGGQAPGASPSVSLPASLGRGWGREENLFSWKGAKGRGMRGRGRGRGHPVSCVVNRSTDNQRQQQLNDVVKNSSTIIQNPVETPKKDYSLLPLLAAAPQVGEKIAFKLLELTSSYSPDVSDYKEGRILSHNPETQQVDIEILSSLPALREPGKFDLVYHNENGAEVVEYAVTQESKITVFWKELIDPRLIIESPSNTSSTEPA
GNB2, P62879, UniProt P62879, whole entry: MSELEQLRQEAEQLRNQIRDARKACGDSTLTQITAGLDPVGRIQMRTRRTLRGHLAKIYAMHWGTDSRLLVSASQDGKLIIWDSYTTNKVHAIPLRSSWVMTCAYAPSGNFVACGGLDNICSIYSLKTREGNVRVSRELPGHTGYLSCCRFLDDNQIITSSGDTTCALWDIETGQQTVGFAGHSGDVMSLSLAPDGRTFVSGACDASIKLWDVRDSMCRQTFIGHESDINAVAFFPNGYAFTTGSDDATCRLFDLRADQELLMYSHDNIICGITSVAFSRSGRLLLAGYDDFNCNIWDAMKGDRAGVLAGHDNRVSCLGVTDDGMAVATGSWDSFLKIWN

Legend:
Test in all cases: PRISMA enrichment of interactor (LFQ) in peptide spot vs all other peptide spots (log2 fold change); higher = stronger / more specific binding of the interactor to the peptide
[1] = target: BIN1, O00499
Procedure: (§1)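 PRISMA: 15-aa overlapping tiles (offset 8 aa) of 60 microproteins, plus SOS1/GLUT1 control peptides, were spot-synthesized on cellulose membranes in triplicate. Membranes were incubated with benzonase-treated HEK293T lysate, and bound proteins were identified by LC-MS/MS with LFQ. Enrichment is the log2 fold change of each protein in one spot versus all other spots. Only interactors passing the significance cutoff are listed.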

[2] = target: CAPZA1, P52907
Procedure: as §1

[3] = target: CAPZB, P47756
Procedure: as §1

[4] = target: CD2AP, Q9Y5K6
Procedure: as §1

[5] = target: CDK5, Q00535
Procedure: as §1

[6] = target: EPS15L1, Q9UBC2
Procedure: as §1

[7] = target: FBXO3, Q9UK99
Procedure: as §1

[8] = target: GRB2, P62993
Procedure: as §1

[9] = target: HTATSF1, O43719
Procedure: as §1

[10] = target: LASP1, Q14847
Procedure: as §1

[11] = target: NCK1, P16333
Procedure: as §1

[12] = target: PACSIN2, Q9UNF0
Procedure: as §1

[13] = target: RCN2, Q14257
Procedure: as §1

[14] = target: RTTN, Q86VV8
Procedure: as §1

[15] = target: RUSC1, Q9BVN2
Procedure: as §1

[16] = target: SET, Q01105
Procedure: as §1

[17] = target: SH3KBP1, Q96B97
Procedure: as §1

[18] = target: SPAST, Q9UBP0
Procedure: as §1

[19] = target: SRSF1, Q07955
Procedure: as §1

[20] = target: BAZ1A, Q9NRL2
Procedure: as §1

[21] = target: BCOR, Q6W2J9
Procedure: as §1

[22] = target: CNPY2, Q9Y2B0
Procedure: as §1

[23] = target: COIL, P38432
Procedure: as §1

[24] = target: DDX20, Q9UHI6
Procedure: as §1

[25] = target: EXOSC10, Q01780
Procedure: as §1

[26] = target: FAM98B, Q52LJ0
Procedure: as §1

[27] = target: GNB2, P62879
Procedure: as §1

[28] = target: ISG20L2, Q9H9L3
Procedure: as §1

[29] = target: MT-ATP6, P00846
Procedure: as §1

[30] = target: NSFL1C, Q9UNZ2
Procedure: as §1

[31] = target: PDCD5, O14737
Procedure: as §1

[32] = target: RER1, O15258
Procedure: as §1

[33] = target: RPP38, P78345
Procedure: as §1

[34] = target: USP5, P45974
Procedure: as §1

Binder	PRISMA enrichment of interactor (log2) [1]	PRISMA enrichment of interactor (log2) [2]	PRISMA enrichment of interactor (log2) [3]	PRISMA enrichment of interactor (log2) [4]	PRISMA enrichment of interactor (log2) [5]	PRISMA enrichment of interactor (log2) [6]	PRISMA enrichment of interactor (log2) [7]	PRISMA enrichment of interactor (log2) [8]	PRISMA enrichment of interactor (log2) [9]	PRISMA enrichment of interactor (log2) [10]	PRISMA enrichment of interactor (log2) [11]	PRISMA enrichment of interactor (log2) [12]	PRISMA enrichment of interactor (log2) [13]	PRISMA enrichment of interactor (log2) [14]	PRISMA enrichment of interactor (log2) [15]	PRISMA enrichment of interactor (log2) [16]	PRISMA enrichment of interactor (log2) [17]	PRISMA enrichment of interactor (log2) [18]	PRISMA enrichment of interactor (log2) [19]	PRISMA enrichment of interactor (log2) [20]	PRISMA enrichment of interactor (log2) [21]	PRISMA enrichment of interactor (log2) [22]	PRISMA enrichment of interactor (log2) [23]	PRISMA enrichment of interactor (log2) [24]	PRISMA enrichment of interactor (log2) [25]	PRISMA enrichment of interactor (log2) [26]	PRISMA enrichment of interactor (log2) [27]	PRISMA enrichment of interactor (log2) [28]	PRISMA enrichment of interactor (log2) [29]	PRISMA enrichment of interactor (log2) [30]	PRISMA enrichment of interactor (log2) [31]	PRISMA enrichment of interactor (log2) [32]	PRISMA enrichment of interactor (log2) [33]	PRISMA enrichment of interactor (log2) [34]
EVPVPPPVPPRRRP [SOS1_WT_3]	4.55	4.5	4.98	7.12	4.05	4.64	6.5	7.85	5.08	4.31	3.36	6	4.61	4.23	4.73	3.74	4.26	3.74	4.26															
LLLWHPALGAQARPP [TUG1]																				4.43	4.35	5.01	5.95	5.15	5.23	6.47	5.13	8.83	4.58	6.54	4.96	4.32	7.83	4.82
